± gives the standard error. Many of these values have a large error.
B1: glmS ribozyme (parent)
chain: AUAAAAGCGCCAGAACUACAGAAAUGUAGUUGACGAGGAGGAGGUUUAUCGAAUUUUCGGCGGAUGCCUCCAAA

Variants of: B1
Experiment: self-cleavage kobs at 2500 uM GlcN6P; higher = faster cleavage; RNA array
Conditions: with glucosamine-6-phosphate
Procedure, shortened: (§1)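 Tiles of sequenced MiSeq chips were imaged over ~14 h at 37 °C. On them, barcoded ribozyme variants had been transcribed in situ by E. coli RNA polymerase and were tracked via a hybridised Cy3 probe while glucosamine-6-phosphate (40 μM to 10 mM) in HEPES/KCl/Mg(OAc)2 buffer flowed in. Per-tile medians, normalised to baseline and to non-cleaving reference variants, were fit to one- or two-exponential decays for kobs, and weighted Michaelis–Menten fits gave kcat and KM.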

Row | Variant | self-cleavage kobs at 2500 uM GlcN6P [s⁻¹]
1 | AUAAAAGCGCCAUAACUACAGAAAUGUAGAUGACGAGGAGGAGGUUUAUCGAGUUUUCGGCGGAUGCCUCCAAA [G13U U30A A53G] | 2.77e-05 ± 1.4e-05
2 | AUAAAAGCGGCAGAACUACAGAAAUGUAGUUGACGAGGAGGAGGUUUAUCGAAUUUUCGGCGGAUGACUCCAAA [C10G C67A] | 2.61e-05 ± 2.2e-05
3 | AUAAAAGCGUCAGAGCUACAGAAAUGUAGUUGACGAGGAGGAGGUUUAUCGAAUUUUCGUUGGAUGCCAGCAAA [C10U A15G G60U C61U U69A C70G] | 3.18e-05 ± 3e-05
4 | AUAAAAGCGCCAGACCUACAGAAAUGUAGUUGACGUGGAGGAGGUUUAUCGAAUUUUCGGCGGAUGAGUCCAAA [A15C A36U C67A C68G] | 2.78e-05 ± 2.5e-05
5 | AUAAAAGCGCCAGUACUACAGAAAUGUAAUUGACGAGGAGGAGGUUUAUCGAAUUUUCGGCAGAUGCCGCCAAA [A14U G29A G62A U69G] | 4.08e-05 ± 2.3e-05
6 | AUAAAAGCGCCCGAACUACAGAAAUGUAGUUGACGAGGAGGAGGUUUAUCGAAAUUUCGGCGGAUGUCUCCAAA [A12C U54A C67U] | 0.0013 ± 0.00072
7 | AUAAAAGCGCAAGCACUACAGAAAUGUAGUUGACGAGGAGGAGGUUUAUCGAGUUUUCGGCGGAUGCCUCCAAA [C11A A14C A53G] | 2.14e-05 ± 1.7e-05
8 | AUAAAAGCGCGAGAACUACAGAAAUGUAGUUGACGAGGAGGAGGUUUAUCGGAUUUUCGGCGGAUGCUUCCAAA [C11G A52G C68U] | 8.75e-05 ± 6.2e-05
9 | AUAAAAGCGUCAGAACUACAGAAAUGUAAUUGACGAUGAGGAGGUUUAUAGAAUUUUCGGCGGAUGCAUCCAAA [C10U G29A G37U C50A C68A] | 2.33e-05 ± 1.9e-05
10 | AUAAAAGCGCCAGCACUACAGAAAUGUAGUUUACGAGGAGGAGGUUUAUCGAAUUUGCGGCGGAUGCCUCCAAA [A14C G32U U57G] | 3.26e-05 ± 2e-05
11 | AUAAAAGCGCCCGAACUACAGAAAUGUAGUUGACGAGGAGGAGGUUUAUCGAAUUUUCGGCGGUUGCCUCCAAA [A12C A64U] | 2.2e-05 ± 1.2e-05
12 | AUAAAAGCGCUAGAACUACAGAAAUGUAGAUGACGAGGAGGAGGUUUAUCGAAUUUUCGGCGGAUGUCUCCAAA [C11U U30A C67U] | 0.000345 ± 0.00019
13 | AUAAAAGCGCCACAACUACAGAAAUGUAGUUGACGAGGAGGAGGUUUAUCGAAAUUUCGUCGGAUGCGUCCAAA [G13C U54A G60U C68G] | 2.57e-05 ± 2.6e-05
14 | AUAAAAGCGCAAGAACUACAGAAAUGUAGUUGACGAGGAGGAGGUUUAUCGAAUACUCGGCGGAUGCCUCCAAA [C11A U55A U56C] | 2.44e-05 ± 1.5e-05
15 | AUAAAAGCGCCAGGACUACAGAAAUGUAGUAGACGAGGAGGAGGUUUAUCGAAUUUACGGCGGAUGCCUCGAAA [A14G U31A U57A C71G] | 3.96e-05 ± 2.7e-05
16 | AUAAAAGCGCCCGAACUACAGAAAUGUAGUUGCCGAGGAGGAGGUUUAUCGAAUUUUCGGCGGAUACCUCCAAA [A12C A33C G66A] | 2.59e-05 ± 1.8e-05
17 | AUAAAAGCGCAAGAACUACAGAAAUGUAGUUGACGAGGAGGAGGUUUAUCGACUUUUCGGCGGAUGCCGCCAAA [C11A A53C U69G] | 0.000101 ± 5.5e-05
18 | AUAAAAGCGCCAGGACUACAGAAAUGUAGUUGACGAGGAGGAGGUUUAUCGAAUUUUCGCCGGAUGCCUUCAAA [A14G G60C C70U] | 2.27e-05 ± 2e-05

Row | Variant | self-cleavage kobs at 2500 uM GlcN6P [s⁻¹]
19 | AUAAAAGCGCAAGAACUACAGAAAUGUAGUUGACGAGGAGGAGGUUUAUCGAAUUUUCGGCGGAUACCUCCAAA [C11A G66A] | 5.6e-05 ± 3.3e-05
20 | AUAAAAGCGCCAGUACUACAGAAAUGUACUUGACGAGGAGGAGGUUUAUCGAAUAUUCGGCGGAUGCCUCCAAA [A14U G29C U55A] | 2e-05 ± 1.8e-05
21 | AUAAAAGCGCCAAAACUACAGAAAUGUAGUUGACGAGGAGGAGGUUUAUCGAAUUUUCGGCUGAUGCCUGCAAA [G13A G62U C70G] | 4.03e-05 ± 3.6e-05
22 | AUAAAAGCGACAGAACUACAGAAAUGUAGUUGACGAGGAGGAGGUUUAUCGAAUAUUCGGCGGAUGGCUCCAAA [C10A U55A C67G] | 3.99e-05 ± 2.9e-05
23 | AUAAAAGCGCUCGAACUACAGAAAUGUAGUUGACGUGGAGGAGGUUUAUGGAAUUUUCGGCGCAUACCUCCAAA [C11U A12C A36U C50G G63C G66A] | 3.11e-05 ± 2.9e-05
24 | AUAAAAGCGCCUGAACUACAGAAAUGUAGUUGACGAGGAGGAGGUUUAUCGAAUUGUCGGCGGAUGCCUCCAAA [A12U U56G] | 0.0376 ± 0.022
25 | AUAAAAGCGUCAGAACUACAGAAAUGUAGUGGACGAGGAGGAGGUUUAUCGAAUUUUCGGCGGAUGCCUCCAAA [C10U U31G] | 2.05e-05 ± 1.4e-05
26 | AUAAAAGCGCCAGUACUACAGAAAUGUAGUUGACGAGGAGGAGGUUUGUCGAAUUUUCGGCGGAUGCCUCCAAA [A14U A48G] | 2.01e-05 ± 1.4e-05
27 | AUAAAAGCGCCAGACCUACAGAAAUGUAGUUGACGAGGAGGAGGUUUAUCGAAUUUUCGGCGGAUGCCUCCAAA [A15C] | 0.01 ± 0.0052
28 | AUAAAAGCGCUAGAACUACAGAAAUGUAUUUGACGAGGAAGAGGUUUAUCGAAUUUUCGGCGGAUGCCUCCAAA [C11U G29U G40A] | 1.86e-05 ± 1.8e-05
29 | AUAAAAGCGCCGGAACUACAGAAAUGUAGUUGACGAGGAGGAGGUAUAUCGAAUUUUCGGCGGAUUCCUCCAAA [A12G U46A G66U] | 4.13e-05 ± 2.4e-05
30 | AUAAAAGCGUCAGUACUACAGAAAUGUAGUUGACGAGGAGGAGGUUUAUCGAAUUUUCGGCGGAUGCCUGCAAA [C10U A14U C70G] | 3.73e-05 ± 2.7e-05
31 | AUAAAAGCGCCGGAACUACAGAAAUGUAGUUGACGAGGAGGAGGUUUAUCGAAUUUACGGCGGAUGCCUCCAAA [A12G U57A] | 1.16e-05 ± 9.9e-06
32 | AUAAAAGCGCCACAACUACAGAAAUGUAGUUGACGAGGAAGAGGUUUAUCGAAUUUUCGGCGGAUGCCUCCAAA [G13C G40A] | 1.81e-05 ± 1.7e-05
33 | AUAAAAGCGCCGGAACUACAGAAAUGUAGUUGACGAGGUGGAGGUUUAUCGACUUUUCGGCGGAUGCCUCCAAA [A12G A39U A53C] | 1.37e-05 ± 1.3e-05
34 | AUAAAAGCGCCAGGACUACAGAAAUGUAGUUGACGAGGAGGAGGUUUAUGCAAUUUUCGGUGGAUGCCACCAAA [A14G C50G G51C C61U U69A] | 3.87e-05 ± 2.9e-05
35 | AUAAAAGCGCGAGGACUACAGAAAUGUAGUUGACGAGGAGGAGGUUUAUCGAAUUUUCGGCGGAUGCCUCCAAA [C11G A14G] | 1.6e-05 ± 1.6e-05

Looked up one by one from the list above, two records:
Row | Variant | self-cleavage kobs at 2500 uM GlcN6P [s⁻¹]
29 | AUAAAAGCGCCGGAACUACAGAAAUGUAGUUGACGAGGAGGAGGUAUAUCGAAUUUUCGGCGGAUUCCUCCAAA [A12G U46A G66U] | 4.13e-05 ± 2.4e-05
25 | AUAAAAGCGUCAGAACUACAGAAAUGUAGUGGACGAGGAGGAGGUUUAUCGAAUUUUCGGCGGAUGCCUCCAAA [C10U U31G] | 2.05e-05 ± 1.4e-05

Variants of: B1
Experiment: self-cleavage kobs at 10000 uM GlcN6P; higher = faster cleavage; RNA array
Conditions: with glucosamine-6-phosphate
Procedure, shortened: as §1

Row | Variant | self-cleavage kobs at 10000 uM GlcN6P [s⁻¹]
36 | AUAAAAGCGUCAGAACUACAGAAAUGUAGUGGACGAGGAGGAGGUUUAUCGAAUUUUCGGCGGAUGCCUCCAAA [C10U U31G] | 2.12e-05 ± 1.5e-05
37 | AUAAAAGCGCGAGGACUACAGAAAUGUAGUUGACGAGGAGGAGGUUUAUCGAAUUUUCGGCGGAUGCCUCCAAA [C11G A14G] | 1.44e-05 ± 1.4e-05
